Construct, isoform or probe ends are uncertain for at least one entry.
Biological target: Stl WT (UniProt Q9F0J8)
Assay: EMSA
Settings: 100 ng DNA in 20 uL; recombinant protein; protein details: GST tag removed by thrombin on column (pGEX-4T-1)

The chains behind the UniProt entries cited, without tags or fusion partners. Where a name states a change or a piece, a line headed by the entry shows the natural chain unless it says otherwise.
UniProt Q9F0J8: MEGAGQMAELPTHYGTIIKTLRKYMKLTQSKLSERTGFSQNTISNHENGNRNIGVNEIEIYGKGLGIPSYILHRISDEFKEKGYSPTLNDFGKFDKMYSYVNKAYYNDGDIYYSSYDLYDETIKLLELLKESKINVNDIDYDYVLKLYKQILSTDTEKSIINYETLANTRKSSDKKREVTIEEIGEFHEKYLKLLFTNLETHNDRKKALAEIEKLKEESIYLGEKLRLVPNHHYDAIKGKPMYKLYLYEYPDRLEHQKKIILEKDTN

“TCGTAAACATATTCTCACCTCCTCGAACAAATTATCTCACATCGAGATATTTATTTCAACATTAAATATTGCAAATTGAGATATTTTTTTCGATATGATATCATTTGGATGGAAGGAGCTGGTCAAATGGCAGAATTACCAACACATTACGGCACAATTATTAAAACTCTTAGAAAATACATGAAATTAACTCAAAGCAAATTGAGTGAAAGGACAGGATTTAGGATCC (double strand) [Stl-Str 229-mer (Stl-regulated promoter region)]”: binds.
